From PubChem BioAssay AID2685 (National Center for Advancing Translational Sciences (NCATS), 2010)
In all, about 320,000 compounds went through this assay and about 2,100 (0.66%) were called active. Inconclusive results, whose numbers are uncertain, are shown with a selection of clear calls. Calls come from the whole dose curve; as a rule, active = well fitted inhibition curve with a large enough effect in the signal ratio, with a control signal flat (not every such curve was filed as active); inconclusive = small, poorly fitted or top-dose-only effect, or effect the other way, or a change in a side signal; inactive = flat fitted curve, though single readings scatter; the % refers to the signal ratio. A potency beside an inconclusive call is a rough fit, not a confirmed value.

Assay: qHTS Assay for Lipid Storage Modulators in Drosophila S3 Cells
Conditions: BODIPY lipid droplet fluorescence, 18-24 h, cells fed with added oleic acid; lipid storage change, negative = inhibition: at 46.1 µM (top of the series) unless noted
How it was run: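 Drosophila S3 cells got compounds at several concentrations plus oleic acid (400 uM solution). Laser-scanning cytometry with 488 nm excitation read lipid droplets at 500-530 nm and cells at 575-640 nm. Percent activity was relative to 20 uM Triacsin C.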
% is set by controls: 0 for no effect and ±100 for the full control effect; potency is the fitted concentration of half-maximal effect.

Which lipid storage change, negative = inhibition does the source give for `O=C(CCn1c(=O)oc2ccc(Cl)cc21)N1CCN(c2ccccc2)CC1` here?
Its lipid storage change, negative = inhibition is inconclusive: 58.5%.

With `COc1ccc(CCN2CN(S(=O)(=O)c3ccc(C)cc3)c3nc4ccccc4nc32)cc1OC` as the compound, how does the lipid storage change, negative = inhibition read?
The lipid storage change, negative = inhibition was inconclusive: 8.92%.

With `CCOC(=O)C1=NN(c2ccc(C)cc2)CC1C(=O)OC` (centres undefined) as the compound, how does the lipid storage change, negative = inhibition read?
Its lipid storage change, negative = inhibition is inconclusive: -30.5%.

For `Cc1cc(C(=O)N2CCN(c3ccc(F)cc3)CC2)on1`, which Potency is on record?
Its Potency is inconclusive: 0.103 µM [activator, full curve].

Which lipid storage change, negative = inhibition does the source give for `CCNC(=S)NNC(=O)c1ccc(=O)n(Cc2ccccc2)c1` here?
The lipid storage change, negative = inhibition was “inactive”.

With `COc1cc(/C=C2\NC(=S)N(C)C2=O)ccc1OCc1cccc(F)c1` as the compound, how does the lipid storage change, negative = inhibition read?
Its lipid storage change, negative = inhibition is inconclusive: -51.8%.

For `CCC(C)(C)N1CC(=O)N(Cc2ccccc2)C(c2ccc(OC)cc2)C1=O` (centres undefined), which Potency is on record?
Its Potency is inconclusive: 18.4 µM [activator, single point].

With `CC(CN1CCN(C)CC1)OC(=O)c1cccc(F)c1` (centres undefined) as the compound, how does the Potency read?
The Potency was inconclusive: 29.1 µM [activator, single point].

Which Potency does the source give for `CC1=C(C(=O)OCc2ccc3c(c2)OCO3)C(c2ccccc2)NC(=O)N1` (centres undefined) here?
Its Potency is inconclusive: 0.184 µM [activator, full curve].

Which lipid storage change, negative = inhibition does the source give for `COc1ccc(N2CCN(C(=O)c3ccc(SC)cc3OC)CC2)cc1` here?
The lipid storage change, negative = inhibition was inconclusive: 20.9%.

Which lipid storage change, negative = inhibition does the source give for `CC(C)N1C(=O)CCC1C(=O)N1CCC(Cc2ccccc2)CC1` (centres undefined) here?
The lipid storage change, negative = inhibition was inconclusive: -26.2%.

With `O=C(NC1CCCC1)C(c1ccc(Cl)cc1)N1CCN(C2CCCCC2)CC1` (centres undefined) as the compound, how does the lipid storage change, negative = inhibition read?
The lipid storage change, negative = inhibition was inconclusive: 36.3%.

With `Cc1sc(NC(=O)C2CCCC2)c(C#N)c1C` as the compound, how does the lipid storage change, negative = inhibition read?
Its lipid storage change, negative = inhibition is inconclusive: 3.93%.

With `CCn1c(C)c(P(=O)(N2CCOCC2)N2CCOCC2)c2ccccc21` as the compound, how does the lipid storage change, negative = inhibition read?
Its lipid storage change, negative = inhibition is inconclusive: -2.21%.

With `Cc1cc(C)c(S(=O)(=O)N(C)CC(=O)NC2CCCC2)c(C)c1` as the compound, how does the Potency read?
The Potency was inconclusive: 29.1 µM [activator, single point].

For `COCCN(C(=O)c1snc(C(N)=O)c1N)C(C(=O)NC1CCCC1)c1cc(OC)c(OC)c(OC)c1` (centres undefined), which Potency is on record?
Its Potency is inconclusive: 2.91 µM [activator, single point].

Which lipid storage change, negative = inhibition does the source give for `CCCSc1ccc(C(=O)Nc2ccc(Cl)cc2)cn1` here?
Its lipid storage change, negative = inhibition is inconclusive: -44%.

Which lipid storage change, negative = inhibition does the source give for `C/C(=N/NC(=O)CNC(=O)Cc1ccccc1)c1ccco1` here?
Its lipid storage change, negative = inhibition is inconclusive: -127%.

With `CC(=O)Nc1cccc(NC(=O)c2ccc3c(c2)CCN3S(=O)(=O)c2ccccc2)c1` as the compound, how does the lipid storage change, negative = inhibition read?
Its lipid storage change, negative = inhibition is inconclusive: 27.1%.

With `C=CCN1C=C2C(=O)C(C)(OC(=O)c3cccs3)C(=O)C=C2C=C1CCCC(=O)OC` (centres undefined) as the compound, how does the lipid storage change, negative = inhibition read?
The lipid storage change, negative = inhibition was inconclusive: 16.1%.

For `COc1cc(/C=N/NC(=O)CCC(=O)NC2CCCCC2)ccc1C`, which lipid storage change, negative = inhibition is on record?
Its lipid storage change, negative = inhibition is inconclusive: 15.1%.

For `O=C1C2CC=C(Cl)CC2C(=O)N1CCc1c[nH]c2ccccc12` (centres undefined), which Potency is on record?
Its Potency is inconclusive: 3.26 µM [rising, partial curve].

For `CC(=O)c1ccc(Sc2ccc(C(C)=O)cc2)cc1`, which Potency is on record?
The Potency was inconclusive: 5.17 µM [activator, single point].

For `CCOC(=O)COc1cccc2c(=O)n(CC(=O)NCc3ccccc3)ccc12`, which lipid storage change, negative = inhibition is on record?
The lipid storage change, negative = inhibition was inconclusive: 19.5%.

Which Potency does the source give for `COc1ccc(-c2cccc(NC(=O)c3ccc4c(c3)OCO4)c2)nn1` here?
The Potency was inconclusive: 4.61 µM [activator, partial curve].

With `CC(C)(C)c1ccc(C(=O)NCC(=O)N2CCNC(=O)C2)cc1` as the compound, how does the Potency read?
Its Potency is inconclusive: 29.1 µM [activator, single point].

For `COc1ccc(CN(Cc2nc3ccccc3c(=O)[nH]2)C(=O)C(C)(C)C)cc1`, which lipid storage change, negative = inhibition is on record?
The lipid storage change, negative = inhibition was inconclusive: 26.8%.

Which lipid storage change, negative = inhibition does the source give for `CN(C)CCNC(C(=O)Nc1cccc(C(F)(F)F)c1)c1ccccc1` (centres undefined) here?
The lipid storage change, negative = inhibition was inconclusive: -38% [cytotoxic] [at 0.369 µM].

Which lipid storage change, negative = inhibition does the source give for `CCCC(C(=O)NC1CCCC1)N(CCN(CC)CC)C(=O)c1snc(C(N)=O)c1N` (centres undefined) here?
Its lipid storage change, negative = inhibition is inconclusive: 39.8%.

With `Cc1ccc(CSc2ccc3nnc(-c4ccccn4)n3n2)cc1` as the compound, how does the lipid storage change, negative = inhibition read?
Its lipid storage change, negative = inhibition is inconclusive: -27.6%.

Which lipid storage change, negative = inhibition does the source give for `CC(=O)c1ccc(NC(=S)NC2CCCC(C)C2C)cc1` (centres undefined) here?
The lipid storage change, negative = inhibition was inconclusive: 16.4%.

For `N#Cc1c2n(c(=S)n(-c3ccc(F)cc3)c1=O)CCCCC2`, which lipid storage change, negative = inhibition is on record?
Its lipid storage change, negative = inhibition is inconclusive: 21.7%.

Which Potency does the source give for `O=C(COc1ccc(Cl)cc1)NCc1nnc(SCC(=O)N2CCCc3ccccc32)o1` here?
Its Potency is inconclusive: 2.06 µM [activator, partial curve].

For `O=S(=O)(Nc1nc2ccccc2nc1NCCN1CCOCC1)c1cccc(Cl)c1`, which lipid storage change, negative = inhibition is on record?
Its lipid storage change, negative = inhibition is inconclusive: -8.68%.

Which Potency does the source give for `COC(=O)C(C)NC(=O)C12CC3CC(CC(C3)C1)C2` (centres undefined) here?
Its Potency is inconclusive: 29.1 µM [cytotoxic, single point].

For `O=C(CSc1nc2ccccc2s1)N/N=C/c1ccc(C(=O)O)cc1`, which Potency is on record?
Its Potency is inconclusive: 0.0052 µM [falling, full curve, poor fit].

For `CCN(Cc1ccncc1)Cc1nc(-c2ccc(C(=O)OC)cc2)no1`, which lipid storage change, negative = inhibition is on record?
Its lipid storage change, negative = inhibition is inconclusive: -35.7%.

Which lipid storage change, negative = inhibition does the source give for `Cc1cccc(CCNC(=O)CNS(=O)(=O)c2ccc3nc(C)sc3c2)c1` here?
The lipid storage change, negative = inhibition was inconclusive: 368%.

With `CCc1nn(CC(=O)N2CCN(c3cc(C)ccc3C)CC2)c(=O)c2cc3occc3n12` as the compound, how does the Potency read?
The Potency was inconclusive: 6.51 µM [falling, single point].
